Experimental data as given in the supplement of paper PMC10849652.
The list shows a part of the results.

By UniProt entry, the sequences of proteins in these tests, tags left out. Where a name states a change or a piece, a line headed by the entry shows the natural chain unless it says otherwise.
UniProt Q9BTE3: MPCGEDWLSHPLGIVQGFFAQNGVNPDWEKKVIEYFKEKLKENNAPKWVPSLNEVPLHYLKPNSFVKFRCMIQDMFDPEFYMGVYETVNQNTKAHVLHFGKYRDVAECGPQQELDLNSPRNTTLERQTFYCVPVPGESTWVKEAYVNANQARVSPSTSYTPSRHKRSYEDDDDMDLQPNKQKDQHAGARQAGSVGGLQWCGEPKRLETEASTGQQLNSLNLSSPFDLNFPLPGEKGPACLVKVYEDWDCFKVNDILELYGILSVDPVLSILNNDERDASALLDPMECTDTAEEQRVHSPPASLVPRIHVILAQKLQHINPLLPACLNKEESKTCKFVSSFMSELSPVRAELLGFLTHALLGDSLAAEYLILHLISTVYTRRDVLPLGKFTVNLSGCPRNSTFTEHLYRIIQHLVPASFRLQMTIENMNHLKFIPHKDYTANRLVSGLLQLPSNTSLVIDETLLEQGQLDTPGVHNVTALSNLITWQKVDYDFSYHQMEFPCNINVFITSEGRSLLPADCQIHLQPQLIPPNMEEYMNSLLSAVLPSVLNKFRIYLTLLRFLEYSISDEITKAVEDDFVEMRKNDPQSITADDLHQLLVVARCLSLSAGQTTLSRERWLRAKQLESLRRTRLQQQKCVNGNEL
UniProt Q8IVS2: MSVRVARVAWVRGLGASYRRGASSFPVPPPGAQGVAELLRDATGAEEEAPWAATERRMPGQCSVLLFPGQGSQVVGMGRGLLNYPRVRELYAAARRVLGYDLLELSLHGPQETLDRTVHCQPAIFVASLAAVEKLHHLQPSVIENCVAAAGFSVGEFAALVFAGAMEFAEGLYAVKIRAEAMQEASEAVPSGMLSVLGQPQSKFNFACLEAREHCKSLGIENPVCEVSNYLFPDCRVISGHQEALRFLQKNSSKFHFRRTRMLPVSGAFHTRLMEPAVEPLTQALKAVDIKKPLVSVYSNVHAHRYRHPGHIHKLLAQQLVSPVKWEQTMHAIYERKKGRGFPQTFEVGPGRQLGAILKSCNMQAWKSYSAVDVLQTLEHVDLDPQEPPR
UniProt P40925: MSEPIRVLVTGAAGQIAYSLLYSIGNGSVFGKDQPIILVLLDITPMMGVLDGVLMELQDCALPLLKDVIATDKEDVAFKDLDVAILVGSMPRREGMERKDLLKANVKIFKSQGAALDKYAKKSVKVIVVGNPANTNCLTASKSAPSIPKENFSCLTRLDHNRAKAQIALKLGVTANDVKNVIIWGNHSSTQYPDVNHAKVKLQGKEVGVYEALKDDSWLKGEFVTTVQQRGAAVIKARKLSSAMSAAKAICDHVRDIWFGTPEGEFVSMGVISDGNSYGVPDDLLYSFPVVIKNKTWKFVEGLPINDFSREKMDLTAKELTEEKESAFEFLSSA
UniProt Q9HCE5: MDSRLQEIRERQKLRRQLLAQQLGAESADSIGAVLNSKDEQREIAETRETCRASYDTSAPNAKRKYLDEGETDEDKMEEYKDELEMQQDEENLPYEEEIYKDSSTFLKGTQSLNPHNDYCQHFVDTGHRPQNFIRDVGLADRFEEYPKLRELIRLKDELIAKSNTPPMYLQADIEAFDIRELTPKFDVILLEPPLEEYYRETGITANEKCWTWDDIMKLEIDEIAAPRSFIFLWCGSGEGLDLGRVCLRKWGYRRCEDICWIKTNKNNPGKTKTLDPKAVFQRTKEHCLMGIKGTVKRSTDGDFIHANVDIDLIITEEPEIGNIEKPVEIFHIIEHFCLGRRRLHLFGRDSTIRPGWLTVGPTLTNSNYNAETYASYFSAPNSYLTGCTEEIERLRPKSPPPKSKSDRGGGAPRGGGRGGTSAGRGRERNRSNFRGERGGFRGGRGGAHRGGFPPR
UniProt P50579: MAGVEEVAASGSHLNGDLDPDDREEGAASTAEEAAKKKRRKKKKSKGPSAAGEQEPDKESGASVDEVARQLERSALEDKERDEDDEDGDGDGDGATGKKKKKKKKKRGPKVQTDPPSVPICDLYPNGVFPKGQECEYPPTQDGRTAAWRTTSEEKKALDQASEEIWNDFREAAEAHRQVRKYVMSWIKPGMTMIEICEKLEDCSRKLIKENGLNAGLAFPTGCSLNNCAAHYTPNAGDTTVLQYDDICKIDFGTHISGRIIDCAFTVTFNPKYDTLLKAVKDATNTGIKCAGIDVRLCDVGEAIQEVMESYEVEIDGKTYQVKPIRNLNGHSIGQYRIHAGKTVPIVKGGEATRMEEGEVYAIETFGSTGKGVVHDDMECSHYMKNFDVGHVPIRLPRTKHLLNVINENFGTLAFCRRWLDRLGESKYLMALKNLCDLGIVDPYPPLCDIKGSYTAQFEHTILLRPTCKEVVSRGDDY
UniProt Q96RQ3: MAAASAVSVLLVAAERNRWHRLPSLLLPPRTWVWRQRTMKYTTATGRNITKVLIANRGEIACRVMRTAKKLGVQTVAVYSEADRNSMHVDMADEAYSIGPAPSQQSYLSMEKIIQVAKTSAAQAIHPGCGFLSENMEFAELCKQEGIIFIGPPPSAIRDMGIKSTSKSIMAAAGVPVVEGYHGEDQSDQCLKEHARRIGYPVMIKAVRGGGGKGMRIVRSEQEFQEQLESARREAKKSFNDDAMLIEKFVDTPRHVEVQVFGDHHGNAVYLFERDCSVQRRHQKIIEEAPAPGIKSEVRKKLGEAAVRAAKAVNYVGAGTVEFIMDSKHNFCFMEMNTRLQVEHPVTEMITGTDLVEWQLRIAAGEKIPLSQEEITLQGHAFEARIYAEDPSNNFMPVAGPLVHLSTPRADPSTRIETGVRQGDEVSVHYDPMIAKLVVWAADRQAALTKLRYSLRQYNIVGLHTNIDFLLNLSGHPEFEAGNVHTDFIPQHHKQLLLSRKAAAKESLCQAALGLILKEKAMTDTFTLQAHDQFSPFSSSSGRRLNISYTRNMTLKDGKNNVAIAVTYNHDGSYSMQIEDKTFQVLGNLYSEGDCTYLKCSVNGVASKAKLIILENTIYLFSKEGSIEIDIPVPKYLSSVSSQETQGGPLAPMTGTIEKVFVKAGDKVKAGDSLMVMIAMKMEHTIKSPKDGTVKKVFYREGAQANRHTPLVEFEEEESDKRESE
UniProt Q9H944: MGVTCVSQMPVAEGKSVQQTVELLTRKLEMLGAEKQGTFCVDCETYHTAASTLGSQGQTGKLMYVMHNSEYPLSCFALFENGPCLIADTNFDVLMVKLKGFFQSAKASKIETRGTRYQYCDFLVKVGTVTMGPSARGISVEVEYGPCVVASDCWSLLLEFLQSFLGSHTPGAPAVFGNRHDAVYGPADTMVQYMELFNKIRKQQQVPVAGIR
UniProt Q8N6Q8: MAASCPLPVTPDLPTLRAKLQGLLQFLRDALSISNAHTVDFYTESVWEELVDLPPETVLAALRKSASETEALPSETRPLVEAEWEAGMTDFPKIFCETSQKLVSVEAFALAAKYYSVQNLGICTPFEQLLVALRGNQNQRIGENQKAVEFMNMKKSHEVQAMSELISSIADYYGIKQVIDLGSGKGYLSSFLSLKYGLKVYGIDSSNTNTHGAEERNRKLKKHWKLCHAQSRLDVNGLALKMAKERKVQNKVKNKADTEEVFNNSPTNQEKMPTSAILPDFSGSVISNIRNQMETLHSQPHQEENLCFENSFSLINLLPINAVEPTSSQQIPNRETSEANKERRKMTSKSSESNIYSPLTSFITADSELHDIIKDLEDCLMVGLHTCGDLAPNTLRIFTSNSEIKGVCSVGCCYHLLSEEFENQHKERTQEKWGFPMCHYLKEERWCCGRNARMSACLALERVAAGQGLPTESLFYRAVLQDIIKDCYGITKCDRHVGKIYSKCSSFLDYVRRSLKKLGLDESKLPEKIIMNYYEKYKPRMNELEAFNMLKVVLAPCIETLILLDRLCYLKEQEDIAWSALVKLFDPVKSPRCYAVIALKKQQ
UniProt Q9BTT4: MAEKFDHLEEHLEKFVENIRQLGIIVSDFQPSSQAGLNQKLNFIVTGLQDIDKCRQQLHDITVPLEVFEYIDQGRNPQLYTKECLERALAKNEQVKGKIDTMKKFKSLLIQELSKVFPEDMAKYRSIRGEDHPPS
UniProt Q9Y316: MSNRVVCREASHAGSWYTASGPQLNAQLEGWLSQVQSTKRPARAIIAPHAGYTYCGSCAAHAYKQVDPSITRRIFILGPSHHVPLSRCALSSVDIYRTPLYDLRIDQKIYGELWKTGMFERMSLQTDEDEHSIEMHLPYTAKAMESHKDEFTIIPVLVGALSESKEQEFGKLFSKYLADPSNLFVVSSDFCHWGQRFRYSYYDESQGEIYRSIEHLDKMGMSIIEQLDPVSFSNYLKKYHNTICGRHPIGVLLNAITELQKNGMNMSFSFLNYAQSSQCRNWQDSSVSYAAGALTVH
UniProt Q96PE7: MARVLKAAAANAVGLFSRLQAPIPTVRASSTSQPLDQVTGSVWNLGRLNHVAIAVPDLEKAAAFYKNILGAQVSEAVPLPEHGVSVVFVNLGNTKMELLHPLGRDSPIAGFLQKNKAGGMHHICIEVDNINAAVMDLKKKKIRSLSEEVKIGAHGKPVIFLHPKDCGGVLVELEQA
UniProt P55081: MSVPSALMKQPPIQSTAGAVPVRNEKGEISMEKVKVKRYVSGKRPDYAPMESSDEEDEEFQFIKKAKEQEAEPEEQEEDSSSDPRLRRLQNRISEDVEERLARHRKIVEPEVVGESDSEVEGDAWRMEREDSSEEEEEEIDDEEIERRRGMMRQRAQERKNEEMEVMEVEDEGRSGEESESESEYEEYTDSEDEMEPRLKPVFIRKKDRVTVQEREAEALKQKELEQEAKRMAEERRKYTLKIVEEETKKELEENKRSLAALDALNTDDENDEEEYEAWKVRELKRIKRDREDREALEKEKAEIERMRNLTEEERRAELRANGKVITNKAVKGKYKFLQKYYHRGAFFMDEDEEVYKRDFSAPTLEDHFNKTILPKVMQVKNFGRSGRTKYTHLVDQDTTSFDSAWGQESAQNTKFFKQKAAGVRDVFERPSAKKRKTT
UniProt Q14814: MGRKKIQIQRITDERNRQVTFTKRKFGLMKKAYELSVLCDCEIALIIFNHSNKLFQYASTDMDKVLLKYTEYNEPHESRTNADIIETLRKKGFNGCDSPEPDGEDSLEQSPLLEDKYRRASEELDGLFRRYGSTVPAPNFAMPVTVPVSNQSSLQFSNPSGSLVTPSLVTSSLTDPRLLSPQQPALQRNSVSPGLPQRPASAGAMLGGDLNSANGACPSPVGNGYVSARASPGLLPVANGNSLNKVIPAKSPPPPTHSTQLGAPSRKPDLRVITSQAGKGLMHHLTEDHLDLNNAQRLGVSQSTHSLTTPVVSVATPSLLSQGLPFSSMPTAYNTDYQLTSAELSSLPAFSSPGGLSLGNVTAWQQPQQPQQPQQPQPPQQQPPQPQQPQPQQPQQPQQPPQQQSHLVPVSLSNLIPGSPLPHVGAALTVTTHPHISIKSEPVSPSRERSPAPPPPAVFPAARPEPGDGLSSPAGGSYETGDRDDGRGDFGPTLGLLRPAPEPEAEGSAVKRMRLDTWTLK
UniProt Q86W50: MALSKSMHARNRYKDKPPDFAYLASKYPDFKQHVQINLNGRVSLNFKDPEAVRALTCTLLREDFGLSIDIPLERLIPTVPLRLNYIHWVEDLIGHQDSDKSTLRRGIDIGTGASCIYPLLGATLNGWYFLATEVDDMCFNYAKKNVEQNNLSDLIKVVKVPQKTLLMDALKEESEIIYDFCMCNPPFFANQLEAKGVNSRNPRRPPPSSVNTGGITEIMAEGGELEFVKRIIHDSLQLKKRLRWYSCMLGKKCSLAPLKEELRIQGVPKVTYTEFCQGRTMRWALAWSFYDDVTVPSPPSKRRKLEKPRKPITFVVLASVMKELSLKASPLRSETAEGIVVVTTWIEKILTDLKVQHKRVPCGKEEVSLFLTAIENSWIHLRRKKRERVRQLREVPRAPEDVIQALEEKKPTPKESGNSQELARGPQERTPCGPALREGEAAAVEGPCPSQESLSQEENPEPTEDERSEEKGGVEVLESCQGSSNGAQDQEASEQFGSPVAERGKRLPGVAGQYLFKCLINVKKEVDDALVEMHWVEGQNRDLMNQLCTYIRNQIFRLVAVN

Legend:
Test in all cases: log2 fold change, soluble protein after heating vs DMSO (PISA); higher = thermal stabilisation; K562 cells, 10 uM, 30 min; active = over 0.2 and 3.5 SD of the protein, either way, in both replicates (recomputed)
saracatinib = compound: CN1CCN(CCOc2cc(OC3CCOCC3)c3c(Nc4c(Cl)ccc5c4OCO5)ncnc3c2)CC1 [saracatinib]
Summary of the method: (§1)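 K562 cells at 2×10^6 cells/mL were given 10 μM compound for 30 min. Aliquots then went through 3 min of heating across 48°C-58°C, were pooled, and were extracted in PBS with 0.5% NP-40 at 4°C, and the supernatant after 21,000xg for 90 min was quantified by TMTpro 16plex LC-MS/MS with channel sums equalised. Thermal stability relative to control samples, from duplicates, is given as log2 fold change.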

sotrastaurin = compound: CN1CCN(c2nc(C3=C(c4c[nH]c5ccccc45)C(=O)NC3=O)c3ccccc3n2)CC1 [sotrastaurin]
Summary of the method: as §1

alvocidib = compound: CN1CC[C@H](c2c(O)cc(O)c3c(=O)cc(-c4ccccc4Cl)oc23)[C@H](O)C1 [alvocidib]
Summary of the method: as §1

Tubastatin A = compound: CN1CCc2c(c3ccccc3n2Cc2ccc(C(=O)NO)cc2)C1 [Tubastatin A]
Summary of the method: as §1

[1] = compound: CNC(=O)C1=CC=CC=C1NC2=NC(=NC=C2Cl)NC3=C(C=C(C=C3)N4CCOCC4)OC
Summary of the method: as §1

defactinib = compound: CNC(=O)c1ccc(Nc2ncc(C(F)(F)F)c(NCc3nccnc3N(C)S(C)(=O)=O)n2)cc1 [defactinib]
Summary of the method: as §1

rucaparib = compound: CNCc1ccc(-c2[nH]c3cc(F)cc4c3c2CCNC4=O)cc1 [rucaparib]
Summary of the method: as §1

[2] = compound: CNc1nc(-c2ccc3c(N)n[nH]c3c2)cc(N2C[C@@H](C(=O)NC3CCCCC3)CC[C@H]2C)n1
Summary of the method: as §1

encorafenib = compound: COC(=O)N[C@@H](C)CNc1nccc(-c2cn(C(C)C)nc2-c2cc(Cl)cc(NS(C)(=O)=O)c2F)n1 [encorafenib]
Summary of the method: as §1

[3] = compound: COC(=O)[C@H](CCSC)NC(=O)C1=C(C=C(C=C1)NC[C@H](CS)N)C2=CC=CC=C2
Summary of the method: as §1

[4] = compound: COC1=CC=C(C=C1)CN2C=CC3=C2C=C(C=C3)C(=O)NO
Summary of the method: as §1

filanesib = compound: CON(C)C(=O)N1N=C(c2cc(F)ccc2F)S[C@@]1(CCCN)c1ccccc1 [filanesib]
Summary of the method: as §1

zotarolimus = compound: CO[C@H]1C[C@@H]2CC[C@@H](C)[C@@](O)(O2)C(=O)C(=O)N2CCCC[C@H]2C(=O)O[C@H]([C@H](C)C[C@@H]2CC[C@H](n3cnnn3)[C@H](OC)C2)CC(=O)[C@H](C)/C=C(\C)[C@@H](O)[C@@H](OC)C(=O)[C@H](C)C[C@H](C)/C=C/C=C/C=C/1C [zotarolimus]
Summary of the method: as §1

idasanutlin = compound: COc1cc(C(=O)O)ccc1NC(=O)[C@@H]1N[C@@H](CC(C)(C)C)[C@](C#N)(c2ccc(Cl)cc2F)[C@H]1c1cccc(Cl)c1F [idasanutlin]
Summary of the method: as §1

alisertib = compound: COc1cc(Nc2ncc3c(n2)-c2ccc(Cl)cc2C(c2c(F)cccc2OC)=NC3)ccc1C(=O)O [alisertib]
Summary of the method: as §1

[5] = compound: COc1cc2nc(-c3cc(F)ccc3O)nc(N[C@@H]3CNC[C@H]3C(C)(C)O)c2cc1OC
Summary of the method: as §1

gefitinib = compound: COc1cc2ncnc(Nc3ccc(F)c(Cl)c3)c2cc1OCCCN1CCOCC1 [gefitinib]
Summary of the method: as §1

[6] = compound: COc1cccc2cc(-c3nc([C@H]4CC[C@H](C(=O)O)CC4)n4ncnc(N)c34)[nH]c12
Summary of the method: as §1

lapatinib = compound: CS(=O)(=O)CCNCc1ccc(-c2ccc3ncnc(Nc4ccc(OCc5cccc(F)c5)c(Cl)c4)c3c2)o1 [lapatinib]
Summary of the method: as §1

pictilisib = compound: CS(=O)(=O)N1CCN(Cc2cc3nc(-c4cccc5[nH]ncc45)nc(N4CCOCC4)c3s2)CC1 [pictilisib]
Summary of the method: as §1

Measured: log2 fold change

MCMBP (UniProt Q9BTE3)
inactive: saracatinib -0.008 | sotrastaurin -0.042 | alvocidib -0.032 | Tubastatin A 0.022 | [1] 0.05 | defactinib -0.096 | rucaparib 0.128 | [2] 0.003 | encorafenib -0.059 | [3] -0.025 | [4] 0.038 | filanesib 0.042 | zotarolimus -0.016 | idasanutlin -0.12 | alisertib -0.02 | [5] 0.003 | gefitinib -0.019 | [6] -0.064 | lapatinib 0.036 | pictilisib -0.03

MCAT (UniProt Q8IVS2)
inactive: saracatinib 0.009 | sotrastaurin -0.012 | alvocidib 0.032 | Tubastatin A 0.026 | [1] 0.14 | defactinib 0.086 | rucaparib 0.134 | [2] 0.003 | encorafenib 0.015 | [3] -0.002 | [4] 0 | filanesib 0.081 | zotarolimus 0.007 | idasanutlin 0.042 | alisertib -0.074 | [5] -0.064 | gefitinib 0.026 | [6] -0.04 | lapatinib 0.026 | pictilisib -0.075

MEAF6 isoform 3 (UniProt Q9HAF1)
inactive: saracatinib 0 | sotrastaurin 0.251 | alvocidib 0.07 | Tubastatin A 0.049 | [1] -0.002 | defactinib 0.027 | rucaparib 0.089 | [2] -0.108 | encorafenib -0.017 | [3] 0.041 | [4] -0.037 | filanesib 0.051 | zotarolimus -0.034 | idasanutlin 0.061 | alisertib -0.073 | [5] 0.022 | gefitinib -0.051 | [6] -0.023 | lapatinib 0.022 | pictilisib -0.038

MDH1 isoform 3 (UniProt P40925)
inactive: saracatinib 0.028 | sotrastaurin 0 | alvocidib -0.009 | Tubastatin A -0.036 | [1] 0.116 | defactinib -0.02 | rucaparib -0.085 | [2] -0.016 | encorafenib -0.019 | [3] 0 | [4] 0.045 | filanesib -0.082 | zotarolimus 0.028 | idasanutlin -0.047 | alisertib -0.017 | [5] 0.001 | gefitinib -0.002 | [6] 0.03 | lapatinib -0.028 | pictilisib 0.039

METTL14 (UniProt Q9HCE5)
inactive: saracatinib 0.06 | sotrastaurin 0.039 | alvocidib -0.008 | Tubastatin A -0.015 | [1] -0.007 | defactinib -0.02 | rucaparib -0.019 | [2] -0.04 | encorafenib 0.014 | [3] 0.005 | [4] -0.075 | filanesib -0.011 | zotarolimus 0.019 | idasanutlin -0.021 | alisertib -0.012 | [5] 0.016 | gefitinib 0.015 | [6] 0.036 | lapatinib 0.023 | pictilisib -0.008

METAP1 (UniProt P53582)
inactive: saracatinib -0.017 | sotrastaurin 0.047 | alvocidib 0.011 | Tubastatin A -0.037 | [1] -0.022 | defactinib 0.02 | rucaparib -0.009 | [2] 0.054 | encorafenib -0.021 | [3] -0.022 | [4] 0.139 | filanesib 0.017 | zotarolimus -0.013 | idasanutlin 0.034 | alisertib -0.024 | [5] 0.007 | gefitinib 0.015 | [6] -0.022 | lapatinib -0.041 | pictilisib 0.04

METAP2 (UniProt P50579)
inactive: saracatinib 0.05 | sotrastaurin 0.121 | alvocidib 0.023 | Tubastatin A -0.017 | [1] -0.018 | defactinib -0.047 | rucaparib 0.031 | [2] -0.064 | encorafenib -0.06 | [3] 0.026 | [4] 0.051 | filanesib 0.081 | zotarolimus -0.022 | idasanutlin 0.08 | alisertib -0.053 | [5] -0.033 | gefitinib 0.033 | [6] -0.027 | lapatinib -0.005 | pictilisib -0.04

MCCC1 (UniProt Q96RQ3)
inactive: saracatinib -0.014 | sotrastaurin 0.004 | alvocidib -0.1 | Tubastatin A 0.019 | [1] 0.051 | defactinib -0.027 | rucaparib -0.042 | [2] 0.074 | encorafenib 0.008 | [3] -0.037 | [4] -0.113 | filanesib -0.012 | zotarolimus 0.02 | idasanutlin -0.179 | alisertib 0 | [5] 0.004 | gefitinib 0.005 | [6] 0.011 | lapatinib 0.041 | pictilisib 0.041

MED20 (UniProt Q9H944)
inactive: saracatinib -0.084 | sotrastaurin 0.018 | alvocidib -0.04 | Tubastatin A -0.03 | [1] -0.061 | defactinib -0.027 | rucaparib -0.057 | [2] -0.08 | encorafenib 0.036 | [3] -0.035 | [4] 0.065 | filanesib 0.066 | zotarolimus 0.029 | idasanutlin -0.042 | alisertib -0.015 | [5] -0.013 | gefitinib 0.013 | [6] 0.015 | lapatinib -0.024 | pictilisib 0.004

METTL25 (UniProt Q8N6Q8)
inactive: saracatinib -0.158 | sotrastaurin 0.111 | alvocidib 0.142 | [1] -0.016 | defactinib 0.002 | [2] -0.125 | [3] 0.104 | [4] 0.063 | filanesib 0.032 | zotarolimus -0.108 | idasanutlin -0.107 | alisertib -0.091 | [5] 0.343 | gefitinib -0.01 | [6] -0.036 | lapatinib -0.179 | pictilisib 0.13

MED10 (UniProt Q9BTT4)
inactive: saracatinib 0.005 | sotrastaurin 0.008 | alvocidib -0.091 | Tubastatin A 0.086 | [1] 0 | defactinib 0.035 | rucaparib 0.088 | [2] 0.013 | encorafenib 0 | [3] -0.017 | [4] -0.13 | filanesib 0.087 | zotarolimus 0.12 | idasanutlin -0.076 | alisertib 0.016 | [5] -0.175 | gefitinib -0.089 | [6] -0.05 | lapatinib 0.07 | pictilisib -0.089

MEMO1 (UniProt Q9Y316)
inactive: saracatinib 0.05 | sotrastaurin 0.01 | alvocidib -0.071 | Tubastatin A -0.017 | [1] -0.012 | defactinib -0.043 | rucaparib -0.029 | [2] 0.004 | encorafenib -0.006 | [3] 0.027 | [4] -0.005 | filanesib -0.086 | zotarolimus 0.055 | idasanutlin -0.104 | alisertib -0.113 | [5] 0.016 | gefitinib 0.035 | [6] 0.04 | lapatinib 0.046 | pictilisib -0.058

MCEE (UniProt Q96PE7)
inactive: saracatinib 0.103 | sotrastaurin 0.056 | alvocidib -0.001 | Tubastatin A 0.029 | [1] -0.008 | defactinib -0.162 | rucaparib 0.02 | [2] 0.032 | encorafenib -0.049 | [3] 0.057 | filanesib -0.035 | zotarolimus -0.04 | idasanutlin 0.068 | alisertib -0.034 | [5] 0.012 | gefitinib 0.059 | [6] 0.079 | lapatinib -0.042 | pictilisib -0.108

MFAP1 (UniProt P55081)
inactive: saracatinib 0.017 | sotrastaurin 0.082 | alvocidib 0.013 | Tubastatin A 0.036 | [1] -0.046 | defactinib -0.092 | rucaparib -0.013 | [2] -0.09 | encorafenib 0.003 | [3] 0.018 | [4] -0.003 | filanesib 0.105 | zotarolimus -0.008 | idasanutlin 0.045 | alisertib -0.066 | [5] -0.021 | gefitinib -0.009 | [6] 0.02 | lapatinib 0.009 | pictilisib -0.017

MEF2D (UniProt Q14814)
inactive: saracatinib -0.002 | sotrastaurin 0.047 | alvocidib -0.048 | Tubastatin A -0.015 | [1] -0.003 | defactinib -0.035 | rucaparib -0.009 | [2] -0.064 | encorafenib -0.026 | [3] 0.107 | [4] -0.094 | filanesib 0.06 | zotarolimus -0.018 | idasanutlin -0.004 | alisertib -0.086 | [5] -0.012 | gefitinib 0.04 | [6] 0.06 | lapatinib -0.059 | pictilisib 0.054

METTL16 (UniProt Q86W50)
inactive: saracatinib 0.065 | sotrastaurin -0.052 | alvocidib -0.156 | Tubastatin A -0.005 | [1] 0.007 | defactinib -0.154 | rucaparib 0.01 | [2] -0.086 | encorafenib 0.024 | [3] 0.008 | [4] 0.026 | filanesib -0.063 | zotarolimus 0.068 | idasanutlin -0.074 | alisertib -0.058 | [5] -0.079 | gefitinib -0.046 | [6] -0.006 | lapatinib 0.08 | pictilisib -0.051
